Literature values, collected in patent publication US20260216162A1, “SELECTIVE FIASMA TREATMENT” (VALO HEALTH, INC., priority 2023, published 2026).
Some results were stated once for a whole list of compounds, not compound by compound. At least one structure is not confirmed: it was looked up by name or label, or the drawing left a doubt.

Tested on: acid sphyingomyelinase (ASMase)
Conditions: at a 10 μM concentration

Compound | ability to reduce the activity of acid sphyingomyelinase (ASMase)
CN(C)CCCC1(c2ccc(F)cc2)OCc2cc(C#N)ccc21 (centres unmarked) [citalopram] | < 50%
CN(C)CCC[C@@]1(c2ccc(F)cc2)OCc2cc(C#N)ccc21 [escitalopram] | < 50%
